Source: article PMC8626583, “Collagen’s primary structure determines collagen:HSP47 complex stoichiometry” (The Journal of Biological Chemistry, 2021)

Target: T1, collagen model peptide Ac-(PPG)2PTGPRG(PPG)2-NH2
T1 sequence (peptide, N-terminal acetyl (Ac); C-terminal amide (NH2)): PPGPPGPTGPRGPPGPPG
Assay: crystal structure; HSP47 H273N/H274N with Ac-(PPG)2PTGPRG(PPG)2-NH2, space group P2_(1); crystallization conditions not told; both purified

binding: binds
Substance: HSP47 double-mutant H273N/H274N (Canis lupus)

No constants are given. Whether binding was seen depends on the method and setting. A result given as binding can be weak or reduced; the word gives no strength.
